Measurements: US5849493
For part of these data: Negatives hold for the conditions tested. For part of these data: Weaker means in comparison with the reference protein, sequence or condition of that experiment. For part of these data: Construct, isoform or probe ends are uncertain for at least one entry. For part of these data: At least one result comes from cells or an extract, where the contact may be indirect. For part of these data: Tags and fusion partners may be left off the protein sequences shown.

Sequences of proteins named here, by UniProt entry; tags and fusion partners are left off. A change or cut given only in a name is not applied to a line headed by its entry. Residues count along the entry.
UniProt P52947, 140-215: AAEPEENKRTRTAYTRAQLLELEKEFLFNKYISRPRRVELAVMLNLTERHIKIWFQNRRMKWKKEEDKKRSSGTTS

Key:
Test in all cases: EMSA
[1] = system: STF-1 + Pbx1 heterodimer; conditions: purified recombinant protein, label: 32P
[2] = biological target: T1, Isl1 homeodomain (rat) (UniProt P61374); conditions: high affinity; purified recombinant protein; protein details: GST; label: 32P
T1 sequence (looked up): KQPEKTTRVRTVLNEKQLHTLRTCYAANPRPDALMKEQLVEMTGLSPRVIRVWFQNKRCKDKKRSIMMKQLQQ

[3] = system: STF-1 delta216-284 + Pbx1; conditions: cooperativity retained; protein translated in vitro; label: 32P
[4] = biological target: STF-1 (IPF1/IDX-1/PDX1) (UniProt P52947); conditions: purified recombinant protein, label: 32P
[5] = system: STF-1 delta1-115 + Pbx1; conditions: cooperativity retained; protein translated in vitro; label: 32P
[6] = system: STF-1 110-215 + Pbx1; conditions: cooperative; purified recombinant protein; protein details: GST-STF-1 from E. coli, Pbx1 in vitro translated; label: 32P
[7] = system: PIM-Isl1 homeodomain fusion + Pbx1; conditions: no heterodimer; fusion monomer binds with wild-type affinity; purified recombinant protein; protein details: GST, Pbx1 in vitro translated; label: 32P
[8] = system: Oct-1 (complex C3); conditions: complex C3 identified by Oct-1 antiserum; protein in an extract; label: 32P
[9] = system: PIM-cdx3 homeodomain fusion + Pbx1; conditions: no heterodimer; fusion monomer binds with wild-type affinity; purified recombinant protein; protein details: GST, Pbx1 in vitro translated; label: 32P
[10] = biological target: STF-1 homeodomain (Hox 140-215) (UniProt P52947); conditions: monomeric complex; purified recombinant protein; protein details: GST (pGEX3X); label: 32P
[11] = system: PIM-cdx3 fusion with STF-1 homeodomain N-terminal arm + Pbx1; conditions: N-terminal arm of STF-1 rescues cooperativity; purified recombinant protein; label: 32P
[12] = system: STF-1 homeodomain (140-215) + Pbx1; conditions: no heterodimer; monomer only; purified recombinant protein; protein details: GST-STF-1 from E. coli, Pbx1 in vitro translated; label: 32P
[13] = system: cdx3 homeodomain + Pbx1; conditions: no heterodimer; purified recombinant protein; protein details: GST, Pbx1 in vitro translated; label: 32P
[14] = system: Isl1 homeodomain + Pbx1; conditions: no heterodimer; monomer binds; purified recombinant protein; protein details: GST-Isl1, Pbx1 in vitro translated; label: 32P
[15] = system: STF-1 FPWMK to AAGGQ mutant + Pbx1 FPWMK to AAGGQ (STF-1); conditions: deficient in cooperativity with Pbx; purified recombinant protein; protein details: Pbx1 in vitro translated; label: 32P
[16] = biological target: STF-1 FPWMK to AAGGQ mutant (UniProt P52947); conditions: wild-type binding activity; purified recombinant protein; label: 32P

GATCTCAGCTATTAATCATGCA / CTACTCCATGATTAATAGCTGA [TSEII M1]
binding result ([1]; minimal effect on cooperativity, variant of somatostatin TSEII): binds

GATCTCAGTAATCTAATCATGCA / AGTCATTAATATGTACGTCATG [TSEII M2]
binding result ([1]; heterodimer completely abolished, variant of somatostatin TSEII): no binding

GATCTCAGTAATTAATCATGCA / AGTCATTAATTAGTACGTCATG [somatostatin TSEII]
binding result [2]: binds
binding result [3]: binds
binding result ([4]; monomeric complex C1, complex C1 half-life <1 min (Tu-6 extract)): binds
binding result [5]: binds
binding result [6]: binds
binding result [7]: no binding
binding result [8]: binds
binding result [9]: no binding
binding result [10]: binds
binding result [11]: binds
binding result [12]: no binding
binding result ([1]; cooperative C2 complex, stability comparable to endogenous C2): binds
binding result [13]: no binding
binding result [14]: no binding
binding result [15]: binds more weakly

GATCTCAGTAATTATACATGCA / GTACTGCATGTATAATTACTGA [TSEII M3]
binding result ([4]; M3 affected formation of monomeric C1, variant of somatostatin TSEII): binds more weakly

GATCTTGTTAATAATCTAATTACCCTAG / AACAATTATTAGATTAATGGGATCCAT [insulin I FLAT element]
binding result ([4]; high affinity site): binds
binding result [16]: binds
binding result ([1]; no heteromeric complex): no binding
